Laboratory results as given in PubChem BioAssay AID1508600 (Functional Genomics Laboratory (NCATS/FGL), 2020).
About 3,700 (7%) of roughly 53,000 sequences were called active.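 The calls were made as follows: active = gene knockdowns whose robust z-score for IL-1 alpha signal is at least 2 or at most -2, so actives lie on both sides; inactive = the rest.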 This is one part of the list.

Experiment: Components of the Cytosolic LPS Sensing Pathway: Gene Identification via Genome-wide siRNA Screen;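 also: robust z of the log signal after scaling to non-targeting control siRNA wells of the plate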
Conditions: RAW264.7 macrophages, IL-1a HTRF, actives lie on both sides, screened at 100 nM (by protocol), cells primed 5 h with Pam3CSK4 first
In short: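 IL-1a HTRF of supernatants after 24 hour LipidA transfection of Pam3CSK4-primed (5 hours) RAW264.7 cells, 48h post-siRNA transfection (100 nM). Scores: percent of plate negative-control median, then log-based robust z-score.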

Sequence	z-score
CCACACAAUCCAGUUAUAATT against 1700055D18Rik	inactive: 1.41
GGCUUUCCUCCAGAUAAACTT against Il6st	inactive: -0.856
GGCUCUGUCCAACAUGAUGTT against Tnnt2	inactive: -0.938
CGUAUUAGAGAAGAUUACATT against Csnka2ip	inactive: 1.25
GGAAUUAAAAGAGCUGGGCTT against Selenon	inactive: 0.697
GCCAAGCUCGCCAAGAUUATT against P4ha2	inactive: 0.273
GGGUUUCCAAGACAGACUATT against Il12rb1	inactive: -0.143
GCUUGCCUAAUGAAACCUUTT against Naaladl1	inactive: -0.715
GGACAUGAGGACACCAUUGTT against Saa1	inactive: -1.51
GCCUAAAUGAUGGUGCUUGTT against Klf4	inactive: -1.82
CCUACACAUACAUUGAUGATT against Eppk1	inactive: -1.37
CCAAGGCUCACCUUCCAAUTT against Sla	inactive: 0.278
GGAUAAUGUGAUAACACUCTT against Fam171a2	inactive: 0.926
CAAGUUAAGGAACUAUGAUTT against LOC432823	inactive: -1.54
GCAACUCAGAAUGUAGUGUTT against Gnai1	inactive: 0.298
GGGCAUGAAGUUUCUGAUCTT against Fgf17	inactive: 0.425
GGAGAUUCACUUUCUAUCUTT against B3gnt9	inactive: 0.656
CCAAGACAUCACAUUCAUATT against Lrriq3	inactive: -1.38
GCCACUUCCUGGAUAAGGATT against Ftl2-ps	active: -2.88
GGGUUUCUAGUCCUGUUUCTT against Cplx2	inactive: -0.0159
GGAAAAUCUCCGUUGUCUCTT against Acin1	active: -2.76
GGCACAUGGAAUCUUUGAGTT against Edc3	inactive: -1.65

Pulled one by one from the list above (4):
Sequence	z-score
GGGUUUCCAAGACAGACUATT against Il12rb1	inactive: -0.143
GCAACUCAGAAUGUAGUGUTT against Gnai1	inactive: 0.298
CCACACAAUCCAGUUAUAATT against 1700055D18Rik	inactive: 1.41
GGCUUUCCUCCAGAUAAACTT against Il6st	inactive: -0.856

The results go on.

Sequence	z-score
GGAUGAAAUCUCUAUCCUCTT against Fam20a	inactive: 0.221
CCAGAAACUGACCUCAACCTT against Ltb	inactive: -1.43
GGGCAAACUCUAGAGCUACTT against Pdgfrl	inactive: -0.0578
GGGUUGAUUAAAGUUUAACTT against Gsx2	inactive: 1.4
GGAAUACGAAAAGCAGGACTT against Tmem107	inactive: 1.39
GCACAGUUGGCAACCUUUATT against S100a9	inactive: -0.029
GGAAUUGAGACCCAAUAUUTT against Cnot7	inactive: -0.353
GGAAUGCAGCCAUCCUAUCTT against Mia	inactive: 0.0985
GGAUAACACCGCCAUUCCATT against Csn3	inactive: -0.303
GGCUGAAACAAGAACGUGATT against Prrc2a	inactive: -1.47
GGAAGAUCAUCCUAUUAUGTT against Wdr26	inactive: -0.219
GCGAUAGCAUAUCCUAUCCTT against Gnb1	inactive: 1.11
GGCCCAUGAUCCAUUUUGGTT against Prnp	active: -2.07
GGUGACAUUUGAGAUCUAUTT against Plcg2	inactive: 1.54
GCCACUAUACAUAUUCUGGTT against Pcdhb18	inactive: -1.02
GGUGUGGUCAAGAAAGUGGTT against Atp6v1c1	inactive: 1.32
GGAAUUUGGUGCAGUGUCCTT against Utp15	inactive: -1.39
GCUUAAGGACGCAUUGAAATT against Pthlh	inactive: -0.377
GGUCUUCUUCUUCAAAGCUTT against Mrpl46	inactive: -1.27
GCUUCCGAAAUCUGCCAAATT against Cd74	inactive: 0.603
GGGUGCUAUUCUCCUUUUUTT against Rab44	inactive: -1
GGAAAUGUACAUCAUCAAGTT against Cnga2	inactive: -1.24

Sequence	z-score
GGGAAUAUUUGGAUAACUUTT against Pak7	active: 4.24
GGACUUGAGUGUGAAUCAATT against Anxa1	inactive: 0.677
GGCCCAUUAUGUUUAGUAATT against Gm1553	inactive: 0.745
GCUCCAUACUUUCACACGATT against H2-Q7	inactive: 0.659
GGGAUGUCUGUUGAAAUAATT against Prcc	inactive: -0.422
GGUCUGCUUUGUCUUGGUGTT against Olfr829	inactive: 0.126
GGCCCACAAUGUGAUUUUATT against Psap	inactive: -0.477
GGGACCUAGGGAGAAAGAGTT against Smim10l2a	inactive: -1.47
GGUUGACGAAUAAAUCAACTT against Aknad1	inactive: 1.21
GCUAUUAAAAUAUGGGAAGTT against Olfr1314	inactive: 1.28
GGUAAUGGGAGCUAGUUUATT against 6330549D23Rik	inactive: -0.259
GGGUUUGAUUCAUCAAAAATT against Peli1	inactive: 0.314
CCAAGAAUGUUUCCAUGUUTT against Slc12a5	inactive: -1.68
GGAGCAAGUCUUGAAAAUUTT against Mtmr1	inactive: 1.14
GCUCAAACACUUACACACUTT against Alcam	inactive: -0.616
GGACUGAUAUCAUUUCUGATT against Flacc1	inactive: -1
CCUUCCAUGACCUAGUUAGTT against Mras	inactive: -1.84
CGGCUAUUCAGAGGACGAATT against Gnai3	inactive: -1.13
GGGCAAAGGGAGUGACAAATT against Skp2	inactive: -1.95
CCACUACUACUGGUAUGCUTT against Atp13a2	inactive: -0.465
CGAAUGGAGCCUUAUUACUTT against Klhl23	inactive: 0.478
GCCACUCAAAGUUCGAAGGTT against Tmem51	inactive: -0.515

Sequence	z-score
CCUUGCAGCAUCAGGACUUTT against Ascl2	active: 4.06
GGUUUGGAUGUGAAACAAGTT against Myot	inactive: -0.861
CCUGUGACUUUAAUUGCUUTT against Zfp275	inactive: 1.7
GGUAGAAAUGGUGAGGUGATT against Pcdhgc5	inactive: -0.0853
CCAUGUUCCAGUUAAUGACTT against Ptch1	inactive: -0.419
GGAAAAGCCUCAUUAGUUUTT against Txndc16	inactive: 0.0816
GGAUGAGAAUUUUGAGGCCTT against Tex22	inactive: -0.836
GGCUCAAGUAUGAGUCUCATT against Calhm2	inactive: 0.73
GGCCUCUCAUUUCUAGUCATT against Kdelr2	inactive: -1.36
GCGUAUCGAAUGAAGAUUCTT against Gtf2a1l	inactive: -0.748
CCCACCAGAUUUCUACACCTT against Vsig2	inactive: -2
GGUGAUGCUUCUUGGAGACTT against Rab37	inactive: -0.59
GGACCUUAAACAAGUACUATT against Zfp750	inactive: 0.206
CCCACUUCGAGAGAAAAACTT against Pafah1b3	inactive: -0.0954
GGUAAGAAGACAAACACUCTT against Ly6g6d	inactive: 0.237
GGUCUACGGCACCUUCUAUTT against Bsnd	inactive: -0.438
CCACCCAACAUCUAUGAGGTT against 1700037C18Rik	inactive: -0.978
GGCACAUGUCAGAAUAGGCTT against Pdlim5	inactive: -0.911
GGACUUCACAAGACUUCAATT against Nfam1	active: 2.06
GGUUUUGAUAACAGAACAUTT against Capza2	inactive: 0.227
CGAUGGAUAAACCUACACCTT against Clmn	inactive: 1.51
GGUUAUUAAGAGCACUUUCTT against Catsper3	inactive: -0.0266

4 entries from above in a different format:
CCCACCAGAUUUCUACACCTT against Vsig2
  z-score: inactive: -2
GGUGAUGCUUCUUGGAGACTT against Rab37
  z-score: inactive: -0.59
GGACCUUAAACAAGUACUATT against Zfp750
  z-score: inactive: 0.206
CCCACUUCGAGAGAAAAACTT against Pafah1b3
  z-score: inactive: -0.0954

(next part)

Sequence	z-score
GGGAAGCAGUGCUUCUUAGTT against Dars	inactive: -0.216
CCACAUCUAAAGUUCAAGATT against Tab2	inactive: -0.0772
GGUCUCCUGUGGAAAUAUCTT against Olfr659	inactive: 0.342
GGAAACUGUGUCAUUAUUATT against Arhgap9	inactive: -0.402
GGACAACAUGAACUGUCAGTT against Snrpd3	active: -2.74
GCAGGUACAAAUCUACUACTT against Myo7b	inactive: 0.908
CCUCUAAGUAUAUCUUGGATT against Jmjd1c	inactive: 0.98
GGUAAAGAGAGAUCCAUCCTT against Pphln1	inactive: 0.307
GCAGGAGUCACCAUACUACTT against Poglut3	inactive: 1.67
GCGAUGGAAACUGAAAUGCTT against Kdm4b	inactive: -0.271
GGAAAAUGGAAUCUUCGGUTT against Pus10	inactive: -1.4
GCUCAAUGUGACAGUGGUGTT against Elane	inactive: 0.38
CGAGCCAUACCUUCAACUGTT against Ncoa2	inactive: -0.815
GCACACUGAAGUGUUUGUATT against Gorasp1	inactive: 1.17
GGAGGGAAUAUGCAAAUAGTT against Ftdc2	active: 2.36
GGUGGAAGACUUCAGUGAATT against Clgn	inactive: 0.384
GGUUCUCUUUGAAGAAACUTT against Amotl2	inactive: 0.0977
GGGAAACUAUUCUAGACGCTT against H2al2a	inactive: -0.0147
GCUUGUCCAAUGCCUAUUCTT against Alg14	inactive: -0.268
